{"source": "PubChem BioAssay AID1159578 (Peter MacCallum Cancer Centre, 2015)", "aim": "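Knock-downs that alter how fast lymphatic endothelial cells migrate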 (primary screen)", "cell system": "human lymphatic endothelial cells", "reagent": "siRNA pool against human genes, 40 nM", "timing": "48 h after transfection", "read-out": "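Cells stained with dye and imaged after a scratch; covered wound area and nuclei counted, duplicates averaged, migration set against mock wells and turned into a robust z-score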", "reading the numbers": "migration robust z-score: higher = faster migration into the scratch; nuclei per well: higher = more cells in the well", "active means": "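Pools averaging fewer than 3300 nuclei are never called; remaining pools count as changed when migration robust z lies outside -2 to 2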", "calls": "active = migration changed; inactive = no migration change, or too few cells", "note": "This is a random part of about 18,000 reagents tested. Over the whole deposit, about 1,030 (5.7%) are marked active. 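Inactive calls also include pools with fewer than 3300 nuclei, whose migration was not assessed.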 Raw values vary from plate to plate and are shown uncorrected. Not all columns of the deposit are shown. Reagent sequences are not shown."}
{"target": "MICALL2", "migration robust z-score": -0.69, "nuclei per well, duplicate mean": 5010, "call": "inactive"}
{"target": "IDUA", "migration robust z-score": 0.62, "nuclei per well, duplicate mean": 5797, "call": "inactive"}
{"target": "SPACA1", "migration robust z-score": -0.6, "nuclei per well, duplicate mean": 5719, "call": "inactive"}
{"target": "UGDH", "migration robust z-score": 0.28, "nuclei per well, duplicate mean": 6411, "call": "inactive"}
{"target": "DLEC1", "migration robust z-score": 0.28, "nuclei per well, duplicate mean": 3984, "call": "inactive"}
{"target": "CEMIP", "migration robust z-score": 1.64, "nuclei per well, duplicate mean": 5376, "call": "inactive"}
{"target": "ZNF274", "migration robust z-score": 2.72, "nuclei per well, duplicate mean": 6369, "call": "active"}
{"target": "PLEK2", "migration robust z-score": -0.26, "nuclei per well, duplicate mean": 7433, "call": "inactive"}
{"target": "SNX19", "migration robust z-score": 0.94, "nuclei per well, duplicate mean": 5242, "call": "inactive"}
{"target": "KCNIP1", "migration robust z-score": 2.29, "nuclei per well, duplicate mean": 5690, "call": "active"}
{"target": "GCSAM", "migration robust z-score": -0.25, "nuclei per well, duplicate mean": 6330, "call": "inactive"}
{"target": "POLD2", "migration robust z-score": -1.76, "nuclei per well, duplicate mean": 3868, "call": "inactive"}
{"target": "C11orf58", "migration robust z-score": 0.22, "nuclei per well, duplicate mean": 5781, "call": "inactive"}

4 of these entries, set out differently.
MICALL2
- migration robust z-score: -0.69
- nuclei per well, duplicate mean: 5010
- call: inactive

IDUA
- migration robust z-score: 0.62
- nuclei per well, duplicate mean: 5797
- call: inactive

SPACA1
- migration robust z-score: -0.6
- nuclei per well, duplicate mean: 5719
- call: inactive

UGDH
- migration robust z-score: 0.28
- nuclei per well, duplicate mean: 6411
- call: inactive

Further results follow.
{"target": "FASTKD5", "migration robust z-score": -0.26, "nuclei per well, duplicate mean": 5918, "call": "inactive"}
{"target": "DIDO1", "migration robust z-score": 0.6, "nuclei per well, duplicate mean": 4884, "call": "inactive"}
{"target": "SLC2A1", "migration robust z-score": -0.11, "nuclei per well, duplicate mean": 4920, "call": "inactive"}
{"target": "NUDT6", "migration robust z-score": 0.28, "nuclei per well, duplicate mean": 4317, "call": "inactive"}
{"target": "LOXL3", "migration robust z-score": 0.5, "nuclei per well, duplicate mean": 5190, "call": "inactive"}
{"target": "SPANXC", "migration robust z-score": -1.5, "nuclei per well, duplicate mean": 4246, "call": "inactive"}
{"target": "KIF2C", "migration robust z-score": 0.64, "nuclei per well, duplicate mean": 6533, "call": "inactive"}
{"target": "HNRNPA2B1", "migration robust z-score": 1.4, "nuclei per well, duplicate mean": 6493, "call": "inactive"}
{"target": "DNAL4", "migration robust z-score": -0.24, "nuclei per well, duplicate mean": 4216, "call": "inactive"}
{"target": "MAST2", "migration robust z-score": -1.15, "nuclei per well, duplicate mean": 3748, "call": "inactive"}
{"target": "GBP5", "migration robust z-score": 1.86, "nuclei per well, duplicate mean": 4935, "call": "inactive"}
{"target": "NLRP4", "migration robust z-score": 0.74, "nuclei per well, duplicate mean": 5324, "call": "inactive"}
{"target": "ENTPD2", "migration robust z-score": -0.4, "nuclei per well, duplicate mean": 3626, "call": "inactive"}
{"target": "GLIS2", "migration robust z-score": 0.96, "nuclei per well, duplicate mean": 6079, "call": "inactive"}
